The other results are listed elsewhere or left out. Residues, ends and D or L forms follow the SMILES beside them. *: point of attachment. Cbz = O=C(OCc1ccccc1)*
Tests used:
Experiment in all cases: log2 fold change, soluble protein after heating vs DMSO (PISA); higher = thermal stabilisation; K562 cells, 10 uM, 30 min; active = over 0.2 and 3.5 SD of the protein, either way, in both replicates (recomputed)
erlotinib = compound: C#Cc1cccc(Nc2ncnc3cc(OCCOC)c(OCCOC)cc23)c1 [erlotinib]
Procedure, shortened: (§1)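 K562 cells at 2×10^6 cells/mL were treated for 30 min with 10 μM compound, and aliquots were heated for 3 min over 48°C-58°C before pooling. Extraction used PBS with 0.5% NP-40 at 4°C, and soluble protein was the supernatant after 21,000xg for 90 min, measured by TMTpro 16plex LC-MS/MS with channel sums equalised. Thermal stability values, relative to control samples and from duplicates, are log2 fold changes.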

Amino acid sequences for entries named in this document (tags omitted). A change or cut given only in a name is not applied to a line headed by its entry.
UniProt Q9HAS0: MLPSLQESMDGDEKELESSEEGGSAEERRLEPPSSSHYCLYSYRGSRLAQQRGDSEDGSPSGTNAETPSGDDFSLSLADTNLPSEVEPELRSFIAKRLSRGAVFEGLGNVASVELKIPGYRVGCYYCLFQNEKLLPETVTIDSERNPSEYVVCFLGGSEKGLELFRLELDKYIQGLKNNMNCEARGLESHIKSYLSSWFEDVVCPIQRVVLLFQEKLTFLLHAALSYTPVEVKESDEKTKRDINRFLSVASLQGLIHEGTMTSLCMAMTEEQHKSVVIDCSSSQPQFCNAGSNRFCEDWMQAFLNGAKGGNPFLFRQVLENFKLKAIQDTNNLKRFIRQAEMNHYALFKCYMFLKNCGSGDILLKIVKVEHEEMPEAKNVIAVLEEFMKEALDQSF
UniProt O43684, whole entry, looked up: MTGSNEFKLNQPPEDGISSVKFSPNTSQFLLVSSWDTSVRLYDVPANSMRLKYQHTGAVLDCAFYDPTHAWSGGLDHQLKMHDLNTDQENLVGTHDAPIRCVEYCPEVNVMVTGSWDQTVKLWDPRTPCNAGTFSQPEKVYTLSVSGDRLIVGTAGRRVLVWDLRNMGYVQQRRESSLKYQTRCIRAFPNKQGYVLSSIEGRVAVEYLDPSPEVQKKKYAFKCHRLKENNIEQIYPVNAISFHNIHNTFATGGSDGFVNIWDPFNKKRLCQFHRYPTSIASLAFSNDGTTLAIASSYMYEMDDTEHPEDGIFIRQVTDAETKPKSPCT
UniProt Q96K31: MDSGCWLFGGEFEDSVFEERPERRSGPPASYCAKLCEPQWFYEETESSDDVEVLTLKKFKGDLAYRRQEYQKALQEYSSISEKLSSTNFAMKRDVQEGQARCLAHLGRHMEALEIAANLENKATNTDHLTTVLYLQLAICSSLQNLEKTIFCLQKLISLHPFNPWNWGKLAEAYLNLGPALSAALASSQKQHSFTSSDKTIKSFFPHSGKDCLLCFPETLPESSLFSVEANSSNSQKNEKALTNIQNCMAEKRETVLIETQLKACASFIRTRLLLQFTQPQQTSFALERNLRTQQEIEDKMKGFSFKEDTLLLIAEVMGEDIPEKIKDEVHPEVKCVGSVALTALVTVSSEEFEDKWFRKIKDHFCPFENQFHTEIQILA
UniProt O75155: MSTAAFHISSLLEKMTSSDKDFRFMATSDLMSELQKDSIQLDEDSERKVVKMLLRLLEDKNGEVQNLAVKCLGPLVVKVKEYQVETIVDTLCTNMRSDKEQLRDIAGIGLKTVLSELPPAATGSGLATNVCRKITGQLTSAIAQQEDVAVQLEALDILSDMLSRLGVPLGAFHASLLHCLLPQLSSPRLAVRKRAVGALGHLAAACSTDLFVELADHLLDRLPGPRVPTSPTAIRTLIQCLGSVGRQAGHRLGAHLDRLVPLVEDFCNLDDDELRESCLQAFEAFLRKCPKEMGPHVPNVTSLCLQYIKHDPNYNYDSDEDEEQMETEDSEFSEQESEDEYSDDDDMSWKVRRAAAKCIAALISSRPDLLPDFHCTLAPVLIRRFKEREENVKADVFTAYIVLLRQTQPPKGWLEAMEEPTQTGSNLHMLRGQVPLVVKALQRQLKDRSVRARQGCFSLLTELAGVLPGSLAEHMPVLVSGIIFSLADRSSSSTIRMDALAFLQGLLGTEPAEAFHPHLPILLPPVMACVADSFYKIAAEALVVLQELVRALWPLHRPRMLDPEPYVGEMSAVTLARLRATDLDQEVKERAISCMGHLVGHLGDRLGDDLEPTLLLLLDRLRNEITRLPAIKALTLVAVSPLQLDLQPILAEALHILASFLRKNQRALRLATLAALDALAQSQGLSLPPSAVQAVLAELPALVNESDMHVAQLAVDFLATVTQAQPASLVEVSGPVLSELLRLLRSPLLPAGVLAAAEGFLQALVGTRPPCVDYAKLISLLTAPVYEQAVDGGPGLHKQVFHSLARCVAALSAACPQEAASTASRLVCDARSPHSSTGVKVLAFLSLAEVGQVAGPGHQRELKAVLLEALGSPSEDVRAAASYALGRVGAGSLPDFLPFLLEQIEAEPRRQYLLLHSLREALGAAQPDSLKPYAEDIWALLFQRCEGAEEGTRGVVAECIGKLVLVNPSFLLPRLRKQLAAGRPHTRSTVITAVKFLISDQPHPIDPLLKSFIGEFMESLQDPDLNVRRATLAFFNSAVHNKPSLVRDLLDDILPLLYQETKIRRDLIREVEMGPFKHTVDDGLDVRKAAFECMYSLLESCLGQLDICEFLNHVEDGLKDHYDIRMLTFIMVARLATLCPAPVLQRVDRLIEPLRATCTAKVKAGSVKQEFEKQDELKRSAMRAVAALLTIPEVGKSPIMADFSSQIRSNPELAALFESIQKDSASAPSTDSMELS
UniProt Q9NS00: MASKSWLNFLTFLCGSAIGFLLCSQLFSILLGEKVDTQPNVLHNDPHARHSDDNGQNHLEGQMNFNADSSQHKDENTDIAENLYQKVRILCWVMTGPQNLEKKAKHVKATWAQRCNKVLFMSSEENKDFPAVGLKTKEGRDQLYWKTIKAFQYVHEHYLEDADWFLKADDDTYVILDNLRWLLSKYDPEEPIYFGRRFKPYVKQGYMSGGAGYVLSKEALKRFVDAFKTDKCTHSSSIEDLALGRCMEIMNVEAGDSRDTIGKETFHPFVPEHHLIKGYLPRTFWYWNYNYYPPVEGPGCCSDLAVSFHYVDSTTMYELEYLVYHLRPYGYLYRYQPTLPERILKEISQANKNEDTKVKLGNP
UniProt Q6P1S2: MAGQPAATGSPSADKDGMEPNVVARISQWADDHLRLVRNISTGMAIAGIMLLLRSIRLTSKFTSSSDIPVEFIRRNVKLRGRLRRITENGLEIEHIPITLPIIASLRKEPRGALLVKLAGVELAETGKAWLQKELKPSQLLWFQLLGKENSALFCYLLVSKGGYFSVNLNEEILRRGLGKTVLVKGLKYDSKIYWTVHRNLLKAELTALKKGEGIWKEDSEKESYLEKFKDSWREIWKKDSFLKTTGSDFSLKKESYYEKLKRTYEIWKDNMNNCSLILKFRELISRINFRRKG
UniProt Q96EU7: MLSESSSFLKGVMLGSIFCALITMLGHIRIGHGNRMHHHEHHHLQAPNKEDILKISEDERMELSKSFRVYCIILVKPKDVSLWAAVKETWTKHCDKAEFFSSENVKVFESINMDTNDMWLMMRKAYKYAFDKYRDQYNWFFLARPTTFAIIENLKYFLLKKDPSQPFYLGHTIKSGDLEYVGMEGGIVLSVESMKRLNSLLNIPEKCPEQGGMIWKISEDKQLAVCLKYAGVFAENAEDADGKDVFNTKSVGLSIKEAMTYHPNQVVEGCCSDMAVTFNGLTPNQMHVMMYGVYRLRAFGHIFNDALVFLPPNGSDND
UniProt Q9Y426: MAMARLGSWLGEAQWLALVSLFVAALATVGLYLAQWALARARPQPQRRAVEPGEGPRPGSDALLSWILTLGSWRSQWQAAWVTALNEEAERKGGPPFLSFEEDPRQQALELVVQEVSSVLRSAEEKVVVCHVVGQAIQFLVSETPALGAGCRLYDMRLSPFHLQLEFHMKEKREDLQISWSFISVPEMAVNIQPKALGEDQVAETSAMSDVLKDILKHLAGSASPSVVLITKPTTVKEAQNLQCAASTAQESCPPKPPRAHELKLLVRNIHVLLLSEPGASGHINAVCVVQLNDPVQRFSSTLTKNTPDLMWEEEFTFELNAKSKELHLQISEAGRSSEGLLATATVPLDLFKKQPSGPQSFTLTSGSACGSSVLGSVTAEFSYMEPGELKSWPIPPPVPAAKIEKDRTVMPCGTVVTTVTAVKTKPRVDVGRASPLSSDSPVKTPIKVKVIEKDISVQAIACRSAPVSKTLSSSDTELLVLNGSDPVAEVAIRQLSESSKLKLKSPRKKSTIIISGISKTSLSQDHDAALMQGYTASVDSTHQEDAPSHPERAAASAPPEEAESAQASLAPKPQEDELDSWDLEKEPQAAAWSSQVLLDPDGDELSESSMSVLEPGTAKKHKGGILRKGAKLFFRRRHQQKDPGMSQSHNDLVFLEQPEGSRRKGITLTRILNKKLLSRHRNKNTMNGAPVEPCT
UniProt Q6P1X6: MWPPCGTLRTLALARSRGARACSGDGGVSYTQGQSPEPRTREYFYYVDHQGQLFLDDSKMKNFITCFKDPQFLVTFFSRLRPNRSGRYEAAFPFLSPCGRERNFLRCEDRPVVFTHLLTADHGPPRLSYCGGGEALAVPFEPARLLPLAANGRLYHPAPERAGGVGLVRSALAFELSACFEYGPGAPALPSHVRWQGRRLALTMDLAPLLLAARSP
UniProt Q9NX04: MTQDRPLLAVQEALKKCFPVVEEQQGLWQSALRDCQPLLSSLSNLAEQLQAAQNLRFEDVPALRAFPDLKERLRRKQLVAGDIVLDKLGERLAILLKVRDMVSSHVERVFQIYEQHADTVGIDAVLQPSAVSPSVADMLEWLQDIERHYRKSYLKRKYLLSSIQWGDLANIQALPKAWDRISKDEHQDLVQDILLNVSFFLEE
UniProt Q8WVQ1: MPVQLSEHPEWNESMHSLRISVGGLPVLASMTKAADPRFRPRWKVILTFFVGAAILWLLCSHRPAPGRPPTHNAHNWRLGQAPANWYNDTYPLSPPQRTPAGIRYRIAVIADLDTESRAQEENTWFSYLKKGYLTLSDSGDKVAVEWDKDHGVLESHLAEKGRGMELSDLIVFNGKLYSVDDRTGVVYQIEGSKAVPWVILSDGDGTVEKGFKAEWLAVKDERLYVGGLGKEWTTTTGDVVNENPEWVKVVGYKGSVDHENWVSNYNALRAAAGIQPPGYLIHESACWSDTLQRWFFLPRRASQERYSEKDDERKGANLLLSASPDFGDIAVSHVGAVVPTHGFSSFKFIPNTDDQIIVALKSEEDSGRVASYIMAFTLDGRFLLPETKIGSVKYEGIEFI
UniProt P27797, whole entry, looked up: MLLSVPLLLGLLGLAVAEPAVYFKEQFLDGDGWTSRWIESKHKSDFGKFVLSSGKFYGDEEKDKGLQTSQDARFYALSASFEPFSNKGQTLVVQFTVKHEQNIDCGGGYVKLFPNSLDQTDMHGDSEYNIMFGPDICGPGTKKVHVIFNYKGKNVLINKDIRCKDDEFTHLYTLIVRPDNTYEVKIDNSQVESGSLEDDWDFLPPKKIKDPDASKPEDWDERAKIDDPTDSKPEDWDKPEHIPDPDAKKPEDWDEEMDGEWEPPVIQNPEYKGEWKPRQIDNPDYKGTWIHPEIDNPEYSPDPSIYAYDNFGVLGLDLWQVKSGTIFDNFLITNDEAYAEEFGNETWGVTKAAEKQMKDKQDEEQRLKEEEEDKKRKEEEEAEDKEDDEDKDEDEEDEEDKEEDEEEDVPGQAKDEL
UniProt Q9Y2V2: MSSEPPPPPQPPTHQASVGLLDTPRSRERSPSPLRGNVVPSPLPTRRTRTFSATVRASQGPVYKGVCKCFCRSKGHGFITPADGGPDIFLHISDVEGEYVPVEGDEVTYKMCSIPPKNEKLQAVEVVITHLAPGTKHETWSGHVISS
UniProt Q01518, whole entry, looked up: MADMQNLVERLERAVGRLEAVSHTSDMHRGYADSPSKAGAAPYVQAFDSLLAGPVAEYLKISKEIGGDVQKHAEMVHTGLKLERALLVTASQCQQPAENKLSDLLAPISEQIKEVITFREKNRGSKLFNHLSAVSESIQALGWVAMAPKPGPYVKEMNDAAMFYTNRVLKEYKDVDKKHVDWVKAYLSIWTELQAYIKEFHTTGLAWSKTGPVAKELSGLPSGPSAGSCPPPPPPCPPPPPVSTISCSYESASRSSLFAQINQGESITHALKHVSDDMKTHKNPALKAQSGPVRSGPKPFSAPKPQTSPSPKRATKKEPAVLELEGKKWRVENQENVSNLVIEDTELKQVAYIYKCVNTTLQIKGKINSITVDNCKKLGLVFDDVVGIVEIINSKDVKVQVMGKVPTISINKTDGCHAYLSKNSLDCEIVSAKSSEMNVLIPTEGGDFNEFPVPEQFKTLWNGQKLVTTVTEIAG
UniProt P47756, whole entry, looked up: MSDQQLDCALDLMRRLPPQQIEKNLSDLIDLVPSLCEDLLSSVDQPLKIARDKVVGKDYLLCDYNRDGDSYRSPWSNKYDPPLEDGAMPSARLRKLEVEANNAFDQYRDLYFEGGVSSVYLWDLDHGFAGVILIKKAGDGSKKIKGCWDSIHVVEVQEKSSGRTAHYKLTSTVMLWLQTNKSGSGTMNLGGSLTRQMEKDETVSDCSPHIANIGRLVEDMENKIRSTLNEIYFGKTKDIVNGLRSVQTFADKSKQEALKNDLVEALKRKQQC

[1] = compound: C/C(=N\NC(=O)C1=CC(=CC=C1)S(=O)(=O)N2CCOCC2)/C3=C(C=CC(=C3)Cl)O
Procedure, shortened: as §1

[2] = compound: C1=CC(=C(C=C1Cl)C2=NC3=NC=CN=C3C(=N2)NC4=CC=NC=C4)F
Procedure, shortened: as §1

[3] = compound: C1=CC(=CC=C1C2=NC3=C(N2)C=C(C=C3)C(=O)N)OC4=CC=C(C=C4)Cl
Procedure, shortened: as §1

[4] = compound: C1=CC2=C(C=CC(=C2)/C=C\3/C(=O)NC(=NCC4=CC=CS4)S3)N=C1
Procedure, shortened: as §1

[5] = compound: C1=CC2=NC=CN=C2C=C1/C=C/3\C(=O)NC(=O)S3
Procedure, shortened: as §1

[6] = compound: C1=CC=C(C=C1)C2=NC(=C(N2)C3=CC=NC=C3)C4=CC(=C(C=C4)Cl)O
Procedure, shortened: as §1

[7] = compound: C1=CC=C2C(=C1)C3=NNC4=CC=CC(=C43)C2=O
Procedure, shortened: as §1

[8] = compound: C1CCN(C1)C(=O)NC2=CC=CC(=C2)NC3=NC=C(C(=N3)NCCC4=CN=CN4)Br
Procedure, shortened: as §1

[9] = compound: C1CN(CCC1(CC2=CC=C(C=C2)Cl)N)C3=NC=NC4=C3C=CN4
Procedure, shortened: as §1

IRAK-1-4 Inhibitor I = compound: C1COCCN1CCN2C3=CC=CC=C3N=C2NC(=O)C4=CC(=CC=C4)[N+](=O)[O-] [IRAK-1-4 Inhibitor I]
Procedure, shortened: as §1

ibrutinib = compound: C=CC(=O)N1CCC[C@@H](n2nc(-c3ccc(Oc4ccccc4)cc3)c3c(N)ncnc32)C1 [ibrutinib]
Procedure, shortened: as §1

[10] = compound: CC(=O)c1cnc2ccc(-c3cc(Cl)c(O)c(Cl)c3)nc2c1N[C@H]1CC[C@H](CN(C)C)CC1
Procedure, shortened: as §1

ralimetinib = compound: CC(C)(C)Cn1c(N)nc2ccc(-c3[nH]c(C(C)(C)C)nc3-c3ccc(F)cc3)nc21 [ralimetinib]
Procedure, shortened: as §1

[11] = compound: CC(C)(O)CC(=O)NCCn1ccc2ncnc(Nc3ccc(Oc4cccc(C(F)(F)F)c4)c(Cl)c3)c21
Procedure, shortened: as §1

[12] = compound: CC(C)C1=C2N=C(C=C(N2N=C1)NCC3=CC=CC=C3)NCCCCCCN
Procedure, shortened: as §1

[13] = compound: CC(C)C[C@@H](C=O)NC(=O)[C@H](CC(C)C)NC(=O)[C@H](CC(C)C)NC(=O)OCc1ccccc1
Procedure, shortened: as §1

pinometostat = compound: CC(C)N(C[C@H]1O[C@@H](n2cnc3c(N)ncnc32)[C@H](O)[C@@H]1O)[C@H]1C[C@@H](CCc2nc3cc(C(C)(C)C)ccc3[nH]2)C1 [pinometostat]
Procedure, shortened: as §1

[14] = compound: CC1=C(C(CC(=O)N1)C2=CC=C(C=C2)C(F)(F)F)C(=O)NC3=C(C=C4C(=C3)C=NN4)F
Procedure, shortened: as §1

[15] = compound: CC1=C(C2=C(C=C1)C(=O)C3=CC=CC=C3N2CCCN)C
Procedure, shortened: as §1

Measured: log2 fold change

C17orf75 (UniProt Q9HAS0)
inactive: erlotinib -0.024 | [1] 0.053 | [2] 0.034 | [3] 0.004 | [4] 0.107 | [5] 0 | [6] -0.005 | [7] 0.049 | [8] -0.128 | [9] -0.005 | IRAK-1-4 Inhibitor I -0.018 | ibrutinib 0.151 | [10] -0.038 | ralimetinib 0.03 | [11] -0.042 | [12] 0.08 | [13] -0.003 | pinometostat 0.114 | [14] -0.006 | [15] 0.113

BUB3 (UniProt O43684)
inactive: erlotinib 0.028 | [1] 0.021 | [2] -0.019 | [3] 0.023 | [4] 0.039 | [5] 0.006 | [6] -0.051 | [7] -0.005 | [8] -0.005 | [9] 0 | IRAK-1-4 Inhibitor I 0.021 | ibrutinib 0.013 | [10] -0.043 | ralimetinib -0.017 | [11] -0.001 | [12] 0 | [13] 0.009 | pinometostat -0.028 | [14] 0.004 | [15] 0.085

C8orf76 (UniProt Q96K31)
inactive: erlotinib -0.044 | [1] 0.049 | [2] 0.027 | [3] 0.043 | [4] -0.031 | [5] 0.032 | [6] -0.068 | [7] 0.075 | [8] -0.013 | [9] 0.04 | IRAK-1-4 Inhibitor I 0.048 | ibrutinib -0.043 | [10] -0.035 | ralimetinib 0.108 | [11] -0.083 | [12] 0.058 | [13] 0.02 | pinometostat -0.028 | [14] 0.004 | [15] 0.034

CAND2 (UniProt O75155)
inactive: erlotinib 0.025 | [1] -0.079 | [2] 0.043 | [3] -0.036 | [4] -0.101 | [5] 0.033 | [6] 0.021 | [7] -0.062 | [8] 0.052 | [9] 0.063 | IRAK-1-4 Inhibitor I -0.092 | ibrutinib -0.008 | [10] 0.074 | ralimetinib -0.02 | [11] -0.053 | [12] 0.064 | [13] -0.019 | pinometostat 0.081 | [14] 0.01 | [15] -0.121

C1GALT1 (UniProt Q9NS00)
inactive: erlotinib 0.006 | [1] -0.041 | [2] -0.013 | [3] -0.005 | [4] 0.039 | [5] 0.005 | [6] -0.052 | [7] -0.119 | [8] -0.019 | [9] 0.009 | IRAK-1-4 Inhibitor I 0.04 | ibrutinib 0.042 | [10] -0.025 | ralimetinib -0.007 | [11] 0.07 | [12] 0.014 | [13] 0.029 | pinometostat 0.036 | [14] 0.159 | [15] 0.047

C3orf33 (UniProt Q6P1S2)
inactive: erlotinib -0.019 | [1] -0.07 | [2] -0.188 | [3] 0.145 | [4] 0.107 | [5] 0 | [6] -0.039 | [7] -0.009 | [8] 0.007 | [9] 0 | IRAK-1-4 Inhibitor I 0.039 | ibrutinib 0.034 | [10] 0.04 | ralimetinib 0.012 | [11] 0.023 | [12] -0.22 | [13] 0.022 | pinometostat 0.044 | [14] -0.092 | [15] 0.035

C1GALT1C1 (UniProt Q96EU7)
inactive: erlotinib 0.014 | [1] 0.027 | [2] -0.048 | [3] 0.01 | [4] 0.022 | [5] 0.053 | [6] 0.004 | [7] -0.004 | [8] -0.014 | [9] 0.066 | IRAK-1-4 Inhibitor I 0.006 | ibrutinib -0.029 | [10] -0.062 | ralimetinib 0.057 | [11] 0.073 | [12] 0.013 | [13] 0.048 | pinometostat 0.027 | [14] -0.023 | [15] 0.014

C2CD2 (UniProt Q9Y426)
inactive: erlotinib 0.094 | [1] -0.002 | [2] -0.088 | [3] 0.024 | [4] 0.038 | [5] 0.078 | [6] 0.064 | [7] -0.129 | [8] -0.039 | [9] 0.13 | IRAK-1-4 Inhibitor I -0.018 | ibrutinib -0.03 | [10] -0.02 | ralimetinib 0.051 | [11] 0.101 | [12] 0.019 | [13] 0.019 | pinometostat 0.004 | [14] 0.085 | [15] 0.132

C8orf82 (UniProt Q6P1X6)
inactive: erlotinib 0.015 | [1] -0.011 | [2] 0.041 | [3] -0.039 | [4] -0.031 | [5] -0.025 | [6] 0.006 | [7] -0.04 | [8] 0.017 | [9] 0.05 | IRAK-1-4 Inhibitor I 0.045 | ibrutinib 0.074 | [10] 0.026 | ralimetinib -0.046 | [11] -0.008 | [12] 0 | [13] -0.046 | pinometostat -0.032 | [14] 0.177 | [15] -0.083

C1orf109 (UniProt Q9NX04)
inactive: erlotinib -0.046 | [1] -0.044 | [2] -0.133 | [3] -0.042 | [4] 0.01 | [5] 0.093 | [6] -0.061 | [7] 0.01 | [8] 0.061 | [9] 0.031 | IRAK-1-4 Inhibitor I 0.014 | ibrutinib 0.015 | [10] 0.014 | ralimetinib -0.038 | [11] -0.141 | [12] 0.119 | [13] 0.038 | pinometostat -0.01 | [14] -0.034 | [15] 0.094

C20orf27 isoform 2 (UniProt Q9GZN8)
inactive: erlotinib -0.013 | [1] 0.12 | [2] -0.014 | [3] 0.016 | [4] 0.281 | [5] -0.021 | [6] 0.066 | [7] 0.015 | [8] 0.008 | [9] 0.016 | IRAK-1-4 Inhibitor I 0.052 | ibrutinib 0.06 | [10] -0.043 | ralimetinib 0.017 | [11] -0.106 | [12] -0.011 | [13] -0.001 | pinometostat -0.014 | [14] -0.066 | [15] 0.023

CANT1 (UniProt Q8WVQ1)
inactive: erlotinib 0.01 | [1] 0.003 | [2] 0.031 | [3] 0.022 | [4] 0.017 | [5] 0.016 | [6] -0.025 | [7] 0.02 | [8] 0.004 | [9] 0.007 | IRAK-1-4 Inhibitor I 0.036 | ibrutinib 0.03 | [10] -0.019 | ralimetinib -0.062 | [11] 0.006 | [12] 0.004 | [13] -0.007 | pinometostat -0.036 | [14] 0.014 | [15] -0.055

CALR (UniProt P27797)
inactive: erlotinib -0.052 | [1] -0.031 | [2] 0.011 | [3] -0.016 | [4] -0.038 | [5] -0.021 | [6] -0.008 | [7] 0 | [8] 0.029 | [9] -0.015 | IRAK-1-4 Inhibitor I 0.016 | ibrutinib -0.007 | [10] 0.019 | ralimetinib -0.003 | [11] -0.002 | [12] -0.02 | [13] -0.003 | pinometostat 0.022 | [14] 0.019 | [15] -0.037

CARHSP1 (UniProt Q9Y2V2)
inactive: erlotinib 0.002 | [1] 0.003 | [2] 0.037 | [3] 0.014 | [4] 0.033 | [5] -0.06 | [6] -0.02 | [7] -0.055 | [8] -0.05 | [9] -0.107 | IRAK-1-4 Inhibitor I 0.064 | ibrutinib -0.024 | [10] 0.039 | ralimetinib -0.056 | [11] -0.027 | [12] -0.048 | [13] 0.026 | pinometostat -0.023 | [14] -0.047 | [15] 0.013

CAP1 (UniProt Q01518)
inactive: erlotinib -0.067 | [1] -0.001 | [2] 0.056 | [3] 0.016 | [4] 0.005 | [5] 0.001 | [6] 0.023 | [7] -0.005 | [8] 0.009 | [9] -0.006 | IRAK-1-4 Inhibitor I 0.021 | ibrutinib 0.004 | [10] 0.044 | ralimetinib -0.031 | [11] -0.048 | [12] 0.005 | [13] -0.009 | pinometostat -0.03 | [14] 0 | [15] 0.067

2 records picked at random from those above:
C2CD2 (UniProt Q9Y426)
inactive: erlotinib 0.094 | [1] -0.002 | [2] -0.088 | [3] 0.024 | [4] 0.038 | [5] 0.078 | [6] 0.064 | [7] -0.129 | [8] -0.039 | [9] 0.13 | IRAK-1-4 Inhibitor I -0.018 | ibrutinib -0.03 | [10] -0.02 | ralimetinib 0.051 | [11] 0.101 | [12] 0.019 | [13] 0.019 | pinometostat 0.004 | [14] 0.085 | [15] 0.132

C20orf27 isoform 2 (UniProt Q9GZN8)
inactive: erlotinib -0.013 | [1] 0.12 | [2] -0.014 | [3] 0.016 | [4] 0.281 | [5] -0.021 | [6] 0.066 | [7] 0.015 | [8] 0.008 | [9] 0.016 | IRAK-1-4 Inhibitor I 0.052 | ibrutinib 0.06 | [10] -0.043 | ralimetinib 0.017 | [11] -0.106 | [12] -0.011 | [13] -0.001 | pinometostat -0.014 | [14] -0.066 | [15] 0.023

Next part:

CAPZB (UniProt P47756)
inactive: erlotinib 0.015 | [1] -0.006 | [2] 0.017 | [3] -0.014 | [4] 0.032 | [5] -0.005 | [6] -0.043 | [7] -0.016 | [8] 0.01 | [9] 0.01 | IRAK-1-4 Inhibitor I 0.038 | ibrutinib 0.002 | [10] 0.005 | ralimetinib -0.03 | [11] -0.015 | [12] 0.037 | [13] 0.01 | pinometostat -0.009 | [14] 0.009 | [15] 0.021
